Test results published in the supplement of paper PMC10849652.
This is one part of the list.

The chains behind the UniProt entries cited, without tags or fusion partners. Where a name states a change or a piece, a line headed by the entry shows the natural chain unless it says otherwise.
UniProt A0JNW5: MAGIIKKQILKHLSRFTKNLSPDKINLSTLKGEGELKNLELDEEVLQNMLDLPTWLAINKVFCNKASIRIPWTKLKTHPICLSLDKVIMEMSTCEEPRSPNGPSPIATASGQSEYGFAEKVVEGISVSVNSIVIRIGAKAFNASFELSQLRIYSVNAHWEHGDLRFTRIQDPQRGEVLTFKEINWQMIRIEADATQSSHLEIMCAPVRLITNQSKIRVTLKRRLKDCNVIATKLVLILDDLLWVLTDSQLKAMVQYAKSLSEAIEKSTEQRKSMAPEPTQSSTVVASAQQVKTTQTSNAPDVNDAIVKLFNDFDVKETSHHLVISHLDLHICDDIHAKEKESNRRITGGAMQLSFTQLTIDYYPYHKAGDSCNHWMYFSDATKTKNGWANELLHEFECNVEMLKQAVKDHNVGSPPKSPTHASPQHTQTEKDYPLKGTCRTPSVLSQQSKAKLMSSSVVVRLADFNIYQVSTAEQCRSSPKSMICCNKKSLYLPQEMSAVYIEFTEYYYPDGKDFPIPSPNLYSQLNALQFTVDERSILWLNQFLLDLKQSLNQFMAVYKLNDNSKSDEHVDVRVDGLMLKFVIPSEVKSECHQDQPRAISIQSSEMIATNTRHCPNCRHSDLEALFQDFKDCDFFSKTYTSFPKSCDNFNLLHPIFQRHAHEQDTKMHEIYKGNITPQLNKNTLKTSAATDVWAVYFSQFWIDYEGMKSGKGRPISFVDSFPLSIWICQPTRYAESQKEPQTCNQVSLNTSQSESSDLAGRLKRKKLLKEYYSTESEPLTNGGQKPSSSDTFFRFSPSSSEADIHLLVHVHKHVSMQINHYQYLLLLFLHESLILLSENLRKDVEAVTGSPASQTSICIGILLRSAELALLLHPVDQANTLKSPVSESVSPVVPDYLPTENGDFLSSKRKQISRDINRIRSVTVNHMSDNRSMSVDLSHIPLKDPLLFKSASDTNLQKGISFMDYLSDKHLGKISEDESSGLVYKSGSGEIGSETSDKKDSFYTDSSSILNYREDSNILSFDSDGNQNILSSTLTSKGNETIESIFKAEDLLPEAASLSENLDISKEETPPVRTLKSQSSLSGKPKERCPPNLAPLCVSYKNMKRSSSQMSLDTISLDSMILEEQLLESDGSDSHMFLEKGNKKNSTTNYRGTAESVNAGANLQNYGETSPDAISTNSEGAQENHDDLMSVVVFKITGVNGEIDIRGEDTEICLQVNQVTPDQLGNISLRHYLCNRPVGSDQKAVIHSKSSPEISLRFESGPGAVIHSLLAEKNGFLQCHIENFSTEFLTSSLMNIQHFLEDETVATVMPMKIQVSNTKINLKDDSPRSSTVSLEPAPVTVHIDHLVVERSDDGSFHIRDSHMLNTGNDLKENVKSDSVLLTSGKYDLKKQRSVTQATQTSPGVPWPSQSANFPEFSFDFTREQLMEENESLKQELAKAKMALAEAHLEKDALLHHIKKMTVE
UniProt Q9Y5Z9: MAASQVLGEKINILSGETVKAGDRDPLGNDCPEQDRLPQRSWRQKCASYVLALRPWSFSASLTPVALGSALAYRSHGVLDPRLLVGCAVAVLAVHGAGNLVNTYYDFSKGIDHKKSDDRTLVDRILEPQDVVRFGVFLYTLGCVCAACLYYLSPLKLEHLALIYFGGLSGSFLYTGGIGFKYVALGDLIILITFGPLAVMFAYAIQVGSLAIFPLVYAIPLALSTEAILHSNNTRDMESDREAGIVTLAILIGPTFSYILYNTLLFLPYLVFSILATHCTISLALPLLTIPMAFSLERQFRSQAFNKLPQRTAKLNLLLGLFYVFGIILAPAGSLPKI
UniProt Q9UPT9: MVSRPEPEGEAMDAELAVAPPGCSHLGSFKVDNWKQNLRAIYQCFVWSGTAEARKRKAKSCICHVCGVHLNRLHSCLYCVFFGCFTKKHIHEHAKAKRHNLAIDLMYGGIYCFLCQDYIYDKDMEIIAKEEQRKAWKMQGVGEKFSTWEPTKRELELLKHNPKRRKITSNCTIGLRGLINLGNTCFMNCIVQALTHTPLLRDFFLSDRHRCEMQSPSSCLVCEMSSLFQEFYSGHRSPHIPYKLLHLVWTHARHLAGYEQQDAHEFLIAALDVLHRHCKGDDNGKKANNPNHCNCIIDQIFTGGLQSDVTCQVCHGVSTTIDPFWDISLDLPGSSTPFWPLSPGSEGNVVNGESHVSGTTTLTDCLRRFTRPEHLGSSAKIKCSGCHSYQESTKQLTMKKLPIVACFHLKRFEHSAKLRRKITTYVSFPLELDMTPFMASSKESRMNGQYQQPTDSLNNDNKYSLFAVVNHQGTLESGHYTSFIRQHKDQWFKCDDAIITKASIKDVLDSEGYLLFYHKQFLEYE
UniProt Q96LJ8: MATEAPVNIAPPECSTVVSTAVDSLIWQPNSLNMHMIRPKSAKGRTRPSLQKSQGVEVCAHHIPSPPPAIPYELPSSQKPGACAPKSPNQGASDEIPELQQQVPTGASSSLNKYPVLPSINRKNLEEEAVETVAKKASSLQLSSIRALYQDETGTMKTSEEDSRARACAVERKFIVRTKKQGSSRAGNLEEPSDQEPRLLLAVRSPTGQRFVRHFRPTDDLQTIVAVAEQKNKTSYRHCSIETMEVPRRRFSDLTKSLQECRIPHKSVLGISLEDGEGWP
UniProt Q9Y5K5, whole entry, looked up: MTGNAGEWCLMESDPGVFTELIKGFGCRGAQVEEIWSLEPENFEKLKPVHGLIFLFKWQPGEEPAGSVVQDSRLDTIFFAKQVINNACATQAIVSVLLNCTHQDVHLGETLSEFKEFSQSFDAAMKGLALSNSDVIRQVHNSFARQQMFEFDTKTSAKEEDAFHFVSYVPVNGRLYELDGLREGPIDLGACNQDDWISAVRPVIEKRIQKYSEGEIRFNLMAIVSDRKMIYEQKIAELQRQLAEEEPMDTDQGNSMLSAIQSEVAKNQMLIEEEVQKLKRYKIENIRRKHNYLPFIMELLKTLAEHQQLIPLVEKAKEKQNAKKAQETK
UniProt O94763, whole entry, looked up: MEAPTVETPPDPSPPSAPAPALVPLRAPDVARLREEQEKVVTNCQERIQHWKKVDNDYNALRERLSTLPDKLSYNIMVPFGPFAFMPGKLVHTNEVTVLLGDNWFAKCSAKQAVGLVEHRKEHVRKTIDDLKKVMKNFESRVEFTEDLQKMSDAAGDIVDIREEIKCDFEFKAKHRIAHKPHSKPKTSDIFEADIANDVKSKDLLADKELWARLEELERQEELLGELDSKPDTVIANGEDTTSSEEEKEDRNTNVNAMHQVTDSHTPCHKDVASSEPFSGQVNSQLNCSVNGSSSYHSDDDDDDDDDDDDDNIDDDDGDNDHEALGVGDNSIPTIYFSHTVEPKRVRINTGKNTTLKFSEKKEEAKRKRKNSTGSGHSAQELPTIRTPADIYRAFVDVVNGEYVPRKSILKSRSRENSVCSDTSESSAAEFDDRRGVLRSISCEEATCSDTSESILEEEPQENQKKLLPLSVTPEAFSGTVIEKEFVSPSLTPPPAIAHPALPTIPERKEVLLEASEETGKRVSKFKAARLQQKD
UniProt Q16739: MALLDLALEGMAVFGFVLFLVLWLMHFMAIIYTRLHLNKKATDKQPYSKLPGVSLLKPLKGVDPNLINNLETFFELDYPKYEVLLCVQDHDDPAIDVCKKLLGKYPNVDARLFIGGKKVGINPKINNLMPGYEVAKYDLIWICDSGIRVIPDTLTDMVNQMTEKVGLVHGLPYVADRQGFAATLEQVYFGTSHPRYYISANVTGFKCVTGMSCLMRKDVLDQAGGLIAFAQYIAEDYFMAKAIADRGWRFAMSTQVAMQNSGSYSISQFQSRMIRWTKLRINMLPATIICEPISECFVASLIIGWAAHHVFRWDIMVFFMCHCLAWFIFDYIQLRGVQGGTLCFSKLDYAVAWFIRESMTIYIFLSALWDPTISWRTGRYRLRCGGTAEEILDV
UniProt Q92738: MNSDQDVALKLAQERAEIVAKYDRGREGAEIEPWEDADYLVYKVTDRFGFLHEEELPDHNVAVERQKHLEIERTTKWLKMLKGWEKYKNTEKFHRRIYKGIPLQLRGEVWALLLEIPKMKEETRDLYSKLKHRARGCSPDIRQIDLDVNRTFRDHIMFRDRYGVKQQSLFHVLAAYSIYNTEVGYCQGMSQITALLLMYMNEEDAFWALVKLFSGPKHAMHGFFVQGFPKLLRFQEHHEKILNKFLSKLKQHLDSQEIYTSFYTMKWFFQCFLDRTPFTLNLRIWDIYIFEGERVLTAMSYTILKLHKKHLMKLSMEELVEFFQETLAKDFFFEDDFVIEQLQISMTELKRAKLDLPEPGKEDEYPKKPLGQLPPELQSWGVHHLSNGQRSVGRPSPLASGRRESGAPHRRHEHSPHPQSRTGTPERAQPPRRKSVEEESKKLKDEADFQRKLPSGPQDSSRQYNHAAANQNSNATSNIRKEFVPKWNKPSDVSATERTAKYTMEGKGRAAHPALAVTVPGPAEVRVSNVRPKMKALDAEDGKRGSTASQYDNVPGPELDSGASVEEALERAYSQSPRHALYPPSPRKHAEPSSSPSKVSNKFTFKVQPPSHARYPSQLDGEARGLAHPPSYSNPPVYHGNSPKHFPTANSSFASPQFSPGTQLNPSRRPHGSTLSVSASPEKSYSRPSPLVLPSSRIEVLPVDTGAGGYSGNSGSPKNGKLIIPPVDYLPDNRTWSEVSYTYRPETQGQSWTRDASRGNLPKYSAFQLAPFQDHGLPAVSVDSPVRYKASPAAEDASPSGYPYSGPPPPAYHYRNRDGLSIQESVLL
UniProt Q6ZT12: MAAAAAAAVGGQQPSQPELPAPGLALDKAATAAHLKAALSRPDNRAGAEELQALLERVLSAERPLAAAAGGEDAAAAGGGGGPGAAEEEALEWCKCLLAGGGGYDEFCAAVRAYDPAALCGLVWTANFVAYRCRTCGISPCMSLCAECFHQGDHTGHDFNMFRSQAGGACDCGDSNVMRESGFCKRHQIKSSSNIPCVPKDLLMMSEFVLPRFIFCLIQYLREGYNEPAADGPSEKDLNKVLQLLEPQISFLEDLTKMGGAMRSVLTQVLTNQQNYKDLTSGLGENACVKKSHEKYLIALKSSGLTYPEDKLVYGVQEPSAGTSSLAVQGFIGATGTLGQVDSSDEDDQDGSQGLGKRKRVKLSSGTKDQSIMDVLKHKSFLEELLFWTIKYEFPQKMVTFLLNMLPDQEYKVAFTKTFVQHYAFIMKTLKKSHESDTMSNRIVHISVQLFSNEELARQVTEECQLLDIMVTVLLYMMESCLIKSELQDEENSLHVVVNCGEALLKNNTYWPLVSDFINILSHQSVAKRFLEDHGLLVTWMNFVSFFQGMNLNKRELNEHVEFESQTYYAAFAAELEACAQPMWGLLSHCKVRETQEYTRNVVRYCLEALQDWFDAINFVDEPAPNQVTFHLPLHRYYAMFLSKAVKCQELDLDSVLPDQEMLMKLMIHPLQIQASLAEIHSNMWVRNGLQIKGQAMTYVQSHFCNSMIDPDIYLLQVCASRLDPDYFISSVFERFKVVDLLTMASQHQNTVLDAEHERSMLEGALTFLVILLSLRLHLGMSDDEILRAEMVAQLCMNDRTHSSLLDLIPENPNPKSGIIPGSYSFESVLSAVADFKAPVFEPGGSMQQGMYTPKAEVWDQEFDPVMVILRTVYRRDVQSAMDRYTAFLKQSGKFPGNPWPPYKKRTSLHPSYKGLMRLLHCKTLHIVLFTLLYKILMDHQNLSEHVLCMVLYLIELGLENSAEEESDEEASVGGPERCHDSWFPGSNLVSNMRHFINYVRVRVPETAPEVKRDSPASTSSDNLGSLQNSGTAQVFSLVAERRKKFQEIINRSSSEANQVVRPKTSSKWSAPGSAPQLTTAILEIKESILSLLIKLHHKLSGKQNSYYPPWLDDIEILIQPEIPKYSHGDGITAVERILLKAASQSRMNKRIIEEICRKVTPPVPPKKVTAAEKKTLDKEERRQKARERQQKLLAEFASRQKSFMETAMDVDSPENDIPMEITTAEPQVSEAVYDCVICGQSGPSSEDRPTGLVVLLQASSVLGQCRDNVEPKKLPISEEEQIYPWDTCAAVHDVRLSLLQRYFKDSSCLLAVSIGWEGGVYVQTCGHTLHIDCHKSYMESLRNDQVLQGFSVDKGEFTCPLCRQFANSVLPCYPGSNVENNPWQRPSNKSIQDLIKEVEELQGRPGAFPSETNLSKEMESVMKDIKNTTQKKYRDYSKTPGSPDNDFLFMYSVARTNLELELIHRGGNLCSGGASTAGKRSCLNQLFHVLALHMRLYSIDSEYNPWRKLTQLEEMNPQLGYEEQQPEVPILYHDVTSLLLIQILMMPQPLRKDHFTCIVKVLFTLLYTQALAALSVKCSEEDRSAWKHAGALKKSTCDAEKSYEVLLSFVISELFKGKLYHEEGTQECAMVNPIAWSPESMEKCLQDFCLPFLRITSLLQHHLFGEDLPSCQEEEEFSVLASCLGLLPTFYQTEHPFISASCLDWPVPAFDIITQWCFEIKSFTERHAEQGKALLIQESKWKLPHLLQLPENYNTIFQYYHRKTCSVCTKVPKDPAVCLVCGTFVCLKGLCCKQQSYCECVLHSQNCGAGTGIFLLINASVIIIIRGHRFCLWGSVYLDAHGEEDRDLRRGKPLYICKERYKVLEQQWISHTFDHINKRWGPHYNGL

Assays:
Experiment in all cases: log2 fold change, soluble protein after heating vs DMSO (PISA); higher = thermal stabilisation; K562 cells, 10 uM, 30 min; active = over 0.2 and 3.5 SD of the protein, either way, in both replicates (recomputed)
[1] = compound: COC1=CC=C(C=C1)CN2C=CC3=C2C=C(C=C3)C(=O)NO
Summary of the method: (§1)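 K562 cells at 2×10^6 cells/mL were treated for 30 min with 10 μM compound, and aliquots were heated for 3 min over 48°C-58°C before pooling. Extraction used PBS with 0.5% NP-40 at 4°C, and soluble protein was the supernatant after 21,000xg for 90 min, measured by TMTpro 16plex LC-MS/MS with channel sums equalised. Thermal stability values, relative to control samples and from duplicates, are log2 fold changes.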

filanesib = compound: CON(C)C(=O)N1N=C(c2cc(F)ccc2F)S[C@@]1(CCCN)c1ccccc1 [filanesib]
Summary of the method: as §1

zotarolimus = compound: CO[C@H]1C[C@@H]2CC[C@@H](C)[C@@](O)(O2)C(=O)C(=O)N2CCCC[C@H]2C(=O)O[C@H]([C@H](C)C[C@@H]2CC[C@H](n3cnnn3)[C@H](OC)C2)CC(=O)[C@H](C)/C=C(\C)[C@@H](O)[C@@H](OC)C(=O)[C@H](C)C[C@H](C)/C=C/C=C/C=C/1C [zotarolimus]
Summary of the method: as §1

idasanutlin = compound: COc1cc(C(=O)O)ccc1NC(=O)[C@@H]1N[C@@H](CC(C)(C)C)[C@](C#N)(c2ccc(Cl)cc2F)[C@H]1c1cccc(Cl)c1F [idasanutlin]
Summary of the method: as §1

alisertib = compound: COc1cc(Nc2ncc3c(n2)-c2ccc(Cl)cc2C(c2c(F)cccc2OC)=NC3)ccc1C(=O)O [alisertib]
Summary of the method: as §1

[2] = compound: COc1cc2nc(-c3cc(F)ccc3O)nc(N[C@@H]3CNC[C@H]3C(C)(C)O)c2cc1OC
Summary of the method: as §1

gefitinib = compound: COc1cc2ncnc(Nc3ccc(F)c(Cl)c3)c2cc1OCCCN1CCOCC1 [gefitinib]
Summary of the method: as §1

[3] = compound: COc1cccc2cc(-c3nc([C@H]4CC[C@H](C(=O)O)CC4)n4ncnc(N)c34)[nH]c12
Summary of the method: as §1

lapatinib = compound: CS(=O)(=O)CCNCc1ccc(-c2ccc3ncnc(Nc4ccc(OCc5cccc(F)c5)c(Cl)c4)c3c2)o1 [lapatinib]
Summary of the method: as §1

pictilisib = compound: CS(=O)(=O)N1CCN(Cc2cc3nc(-c4cccc5[nH]ncc45)nc(N4CCOCC4)c3s2)CC1 [pictilisib]
Summary of the method: as §1

[4] = compound: CS(=O)(=O)c1ccc(-c2cnc(N)c(C(=O)Nc3ccccc3)n2)cc1
Summary of the method: as §1

crizotinib = compound: C[C@@H](Oc1cc(-c2cnn(C3CCNCC3)c2)cnc1N)c1c(Cl)ccc(F)c1Cl [crizotinib]
Summary of the method: as §1

[5] = compound: C[C@@H]1COCCN1C2=NC(=NC(=C2)C3(CC3)S(=O)(=O)C)C4=C5C=CNC5=CC=C4
Summary of the method: as §1

[6] = compound: C[C@H](C1=CC=C(C=C1)C(=O)NC2=C3C=CNC3=NC=C2)N
Summary of the method: as §1

gandotinib = compound: Cc1cc(Nc2cc(CN3CCOCC3)c3nc(C)c(Cc4ccc(Cl)cc4F)n3n2)n[nH]1 [gandotinib]
Summary of the method: as §1

[7] = compound: Cc1cc(SCc2sc(-c3ccc(C(F)(F)F)cc3)nc2C)ccc1OCC(=O)O
Summary of the method: as §1

doramapimod = compound: Cc1ccc(-n2nc(C(C)(C)C)cc2NC(=O)Nc2ccc(OCCN3CCOCC3)c3ccccc23)cc1 [doramapimod]
Summary of the method: as §1

ispinesib = compound: Cc1ccc(C(=O)N(CCCN)[C@@H](c2nc3cc(Cl)ccc3c(=O)n2Cc2ccccc2)C(C)C)cc1 [ispinesib]
Summary of the method: as §1

duvelisib = compound: C[C@H](Nc1ncnc2nc[nH]c12)c1cc2cccc(Cl)c2c(=O)n1-c1ccccc1 [duvelisib]
Summary of the method: as §1

tozasertib = compound: Cc1cc(Nc2cc(N3CCN(C)CC3)nc(Sc3ccc(NC(=O)C4CC4)cc3)n2)n[nH]1 [tozasertib]
Summary of the method: as §1

Measured: log2 fold change

UHRF1BP1L (UniProt A0JNW5)
inactive: [1] -0.027 | filanesib 0.038 | zotarolimus 0.093 | idasanutlin -0.073 | alisertib -0.08 | [2] 0.179 | gefitinib 0.05 | [3] 0.034 | lapatinib -0.006 | pictilisib -0.046 | [4] 0.001 | crizotinib -0.04 | [5] 0.031 | [6] -0.002 | gandotinib -0.038 | [7] -0.024 | doramapimod 0.046 | ispinesib 0.2

UBIAD1 (UniProt Q9Y5Z9)
inactive: [1] -0.063 | filanesib -0.038 | zotarolimus -0.246 | idasanutlin -0.039 | alisertib -0.054 | [2] -0.008 | gefitinib 0.077 | [3] 0.013 | lapatinib 0.082 | pictilisib 0.103 | [4] 0.107 | crizotinib 0.024 | [6] 0.001 | gandotinib 0.069 | [7] 0.004 | doramapimod -0.1 | ispinesib -0.117

USP22 (UniProt Q9UPT9)
inactive: [1] 0.074 | filanesib 0.03 | zotarolimus 0.023 | idasanutlin -0.053 | alisertib -0.109 | [2] 0.091 | gefitinib -0.083 | [3] -0.05 | lapatinib -0.117 | [4] -0.017 | crizotinib -0.021 | [5] 0.077 | [6] 0.042 | duvelisib -0.072 | tozasertib -0.056 | [7] 0.06 | doramapimod -0.184

UBXN10 (UniProt Q96LJ8)
inactive: [1] 0.059 | filanesib 0.038 | zotarolimus -0.049 | alisertib 0.016 | [2] -0.071 | gefitinib -0.079 | [3] -0.11 | lapatinib 0.097 | pictilisib -0.008 | [4] -0.03 | crizotinib -0.121 | [5] -0.091 | [6] -0.09 | gandotinib 0.161 | [7] -0.008 | doramapimod -0.014 | ispinesib -0.124

UCHL5 isoform 3 (UniProt Q9Y5K5)
inactive: [1] 0.229 | filanesib -0.13 | zotarolimus 0.227 | idasanutlin 0.057 | alisertib 0.072 | [2] 0.036 | gefitinib -0.04 | [3] 0.16 | lapatinib -0.07 | [4] 0.039 | crizotinib -0.458 | [5] 0.058 | [6] -0.05 | doramapimod -0.067 | ispinesib 0.02

URI1 isoform 4 (UniProt O94763)
inactive: [1] 0.168 | filanesib -0.295 | zotarolimus -0.199 | idasanutlin -0.045 | gefitinib 0.125 | pictilisib 0.006 | [4] -0.219 | crizotinib -0.417 | [5] -0.108 | [6] 0.142 | duvelisib 0.05 | gandotinib -0.043 | tozasertib 0.136 | [7] 0.043 | doramapimod 0.309 | ispinesib -0.032

UGCG (UniProt Q16739)
inactive: [1] 0.009 | filanesib -0.005 | zotarolimus -0.094 | idasanutlin 0.028 | alisertib 0.077 | [2] -0.082 | [3] 0.013 | lapatinib -0.036 | [4] 0.152 | crizotinib 0.126 | [5] -0.055 | [6] -0.051 | duvelisib -0.226 | tozasertib 0.099 | [7] 0.098 | doramapimod -0.015 | ispinesib 0.267

UGDH (UniProt O60701)
inactive: [1] 0.164 | filanesib 0.001 | zotarolimus 0.053 | idasanutlin -0.043 | alisertib 0.067 | [2] 0.04 | gefitinib 0.118 | [3] 0.059 | lapatinib -0.036 | pictilisib 0.022 | [4] -0.106 | crizotinib 0.079 | [5] 0.041 | [6] -0.161 | gandotinib -0.064 | [7] 0.049 | doramapimod -0.106 | ispinesib 0.165

USP6NL isoform 2 (UniProt Q92738)
inactive: [1] 0.173 | filanesib 0.022 | zotarolimus 0.069 | idasanutlin 0.091 | [2] -0.037 | gefitinib -0.035 | lapatinib 0.013 | [4] 0.043 | crizotinib -0.065 | [5] 0.216 | [6] -0.361 | duvelisib -0.178 | tozasertib -0.057 | [7] 0.059 | doramapimod 0.238 | ispinesib 0.184

UBR3 isoform 4 (UniProt Q6ZT12)
inactive: [1] -0.166 | filanesib 0.038 | zotarolimus -0.043 | [2] 0.045 | lapatinib -0.086 | [4] 0.012 | crizotinib -0.319 | [5] 0.021 | [6] 0.113 | duvelisib -0.143 | tozasertib 0.097 | [7] 0.211 | doramapimod -0.11

Copied from the results shown (two entries):
UCHL5 isoform 3 (UniProt Q9Y5K5)
inactive: [1] 0.229 | filanesib -0.13 | zotarolimus 0.227 | idasanutlin 0.057 | alisertib 0.072 | [2] 0.036 | gefitinib -0.04 | [3] 0.16 | lapatinib -0.07 | [4] 0.039 | crizotinib -0.458 | [5] 0.058 | [6] -0.05 | doramapimod -0.067 | ispinesib 0.02

URI1 isoform 4 (UniProt O94763)
inactive: [1] 0.168 | filanesib -0.295 | zotarolimus -0.199 | idasanutlin -0.045 | gefitinib 0.125 | pictilisib 0.006 | [4] -0.219 | crizotinib -0.417 | [5] -0.108 | [6] 0.142 | duvelisib 0.05 | gandotinib -0.043 | tozasertib 0.136 | [7] 0.043 | doramapimod 0.309 | ispinesib -0.032
